Reference: publication doi:10.1101/2023.03.18.533296

T1: GFP-VAMP721^Y57D (Arabidopsis thaliana) (UniProt Q9ZTW3)
T1 sequence: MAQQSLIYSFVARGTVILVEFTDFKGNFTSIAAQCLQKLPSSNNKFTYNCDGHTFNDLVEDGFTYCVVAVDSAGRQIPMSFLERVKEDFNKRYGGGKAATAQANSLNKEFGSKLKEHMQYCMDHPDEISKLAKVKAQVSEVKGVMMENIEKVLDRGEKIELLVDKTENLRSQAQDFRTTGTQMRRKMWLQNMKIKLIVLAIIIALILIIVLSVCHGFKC

B1: RPT1A (26S proteasome regulatory subunit) (protein, UniProt Q9SSB5 1-426)
chain: MVRDIEDEIRDEKNPRPLDEDDIALLKTYGLGPYSAPIKKVEKEIKDLAKKINDLCGIKESDTGLAPPSQWDLVSDKQMMQEEQPLQVARCTKIISPNTEDAKYVINVKQIAKFVVGLGDKVSPTDIEEGMRVGVDRNKYQIQIPLPPKIDPSVTMMTVEEKPDVTYNDVGGCKEQIEKMREVVELPMLHPEKFVKLGIDPPKGVLCYGPPGTGKTLLARAVANRTDACFIRVIGSELVQKYVGEGARMVRELFQMARSKKACIVFFDEVDAIGGARFDDGVGGDNEVQRTMLEIVNQLDGFDARGNIKVLMATNRPDTLDPALLRPGRLDRKVEFGLPDLESRTQIFKIHTRTMNCERDIRFELLARLCPNSTGADIRSVCTEAGMYAIRARRKTVTEKDFLDAVNKVIKGYQKFSATPKYMVYN
B2: RPN6 (26S proteasome non-ATPase regulatory subunit) (protein, UniProt Q9LP45 1-419)
chain: MVSYRATTETISLALEANSSEAITILYQVLEDPSSSPEAIRIKEQAITNLCDRLTEEKRGEDLRKLLTKLRPFFSLIPKAKTAKIVRGIIDAVAKIPGTTDLQITLCKEMVEWTRAEKRTFLRQRVEARLAALLMENKEYVEALALLSTLVKEVRRLDDKLLLVDIDLLESKLHFSLRNLPKAKAALTAARTAANAIYVPPAQQGTIDLQSGILHAEEKDYKTGYSYFFEAFESFNALGDPRAVFSLKYMLLCKIMVSQADDVAGIISSKAGLQYVGPDLDAMKAVADAHSKRSLKLFENALRDYKAQLEDDPIVHRHLSSLYDTLLEQNLCRLIEPFSRVEIAHIAELIGLPLDHVEKKLSQMILDKKFAGTLDQGAGCLIIFEDPKADAIYSATLETIANMGKVVDSLYVRSAKIMS
B3: RPN7 (26S proteasome non-ATPase regulatory subunit) (protein, UniProt Q93Y35 1-387)
chain: MDGGAEGSQQPHLILANKLFLLTHPDVPDIEKVQLKSEVLDFIRSHGMAPLYETLIASSVLDLDQSLLESMRAANEEELKKLDEKIADAEENLGESEVREAHLAKALYFIRISDKEKALEQLKLTEGKTVAVGQKMDVVFYTLQLAFFYMDFDLVSKSIDKAKKLFEEGGDWERKNRLKVYEGLYCMSTRNFKKAASLFLDSISTFTTYEIFPYETFIFYTVLTSIITLDRVSLKQKVVDAPEILTVLGKIPFLSEFLNSLYECQYKAFFSAFAGMAVQIKYDRYLYPHFRFYMREVRTVVYSQFLESYKSVTVEAMAKAFGVSVDFIDQELSRFIAAGKLHCKIDKVAGVLETNRPDAKNALYQATIKQGDFLLNRIQKLSRVIDL
B4: RPN10 (26S proteasome non-ATPase regulatory subunit) (protein, UniProt P55034 1-386)
chain: MVLEATMICIDNSEWMRNGDYSPSRLQAQTEAVNLLCGAKTQSNPENTVGILTMAGKGVRVLTTPTSDLGKILACMHGLDVGGEINLTAAIQIAQLALKHRQNKNQRQRIIVFAGSPIKYEKKALEIVGKRLKKNSVSLDIVNFGEDDDEEKPQKLEALLTAVNNNDGSHIVHVPSGANALSDVLLSTPVFTGDEGASGYVSAAAAAAAAGGDFDFGVDPNIDPELALALRVSMEEERARQEAAAKKAADEAGQKDKDGDTASASQETVARTTDKNAEPMDEDSALLDQAIAMSVGDVNMSEAADEDQDLALALQMSMSGEESSEATGAGNNLLGNQAFISSVLSSLPGVDPNDPAVKELLASLPDESKRTEEEESSSKKGEDEKK
B5: BAG6 (protein, UniProt O82345)
chain: MMPVYMDPSQPCQMRPQEYYYQGFGNNSQHMAMDAPPPCHGSCVHGNFPAYWPPCYPPQVPYHQCCMNRSAFHPPHASYAPSCYVHPPFPVGYQPWFDVEKDVPGKHHCGKCSSQMCDLKKDRGVVIEEHEPEIEKGEAVLPVRSTNCPYPIIWIPHENARNQEYRSSLGLGKHNQPPAEVRAPDNMTIQKSFPESWRGCFPFDESSMKSLVQNQDSKKAQNGKTVEAPFDISKFKSLLQGQDMKEAQIQKNKEELGQLTYPTSWVPSRRKRDDVEASESSNEDRKKMQNGKTVEYPFDISMIKSLIQGQDVKEAQNQKNKEEPGQVPYPIFWIPSYGKRKDVEASESKESSNEGRNLESCPSDLHRNEGQITQAKGKEGNFECNVLSDAEEKSSVINIPVANHLQEPRNIPVKLSENHLPKPTEPTKRIAKNEPVKSTKKEQSSSSSEASKLPPVCLRVDPLPKERNGGSKSVSHPKRMEKSKETKIAAPLSSKKAESRTVPEACNVKCEDANAEMKMAEGSLNALRTEKGSVESNSNLQEESNGEIIKPCEAKENREQPAKKSFTEEEAARIIQSMYRGYDVRRWEPIKKLKEIATVREQMGDVKKRIEALEASTDQHIEEKEIVVNGELVMNLLLKLDAVEGLHPSIREFRKALATELSSIQDKLDSLKNSCASAEKEAVKEQVEIKSQPSDSPVNLEHSQLTEENKMVSDTNLEKVLRLSPEEHPMSVLNRTDEKQAESAAETEEGYGLFETLATDSKQATENAAAASSTTIPEKIGEVETVVPGNPPSADGNGMTVTNVEENKAMVVESLEEPINELPQMVEETETNSIRDPENASEVSEAETNSSENENRKGEDDIVLHSEKNVELSELPVGVIDEETQPLSQDPSSSYTREGNMTAMDPKTASQEETEVDHSPNNSKGIGQQTSEPQDEKEQSPETEVIVKEQPLETEVILNEQAPEPEITEPGISKETKKLMEENQRFKETMETLVKAGREQLEVISKLTSRVKSLEKKLSHKKKTQIRRRASKPMSVSPTDAVL
B6: HSP70-9 (protein, UniProt Q8GUM2 47-682)
chain: SRPVGNDVIGIDLGTTNSCVSVMEGKTARVIENAEGSRTTPSVVAMNQKGELLVGTPAKRQAVTNPTNTIFGSKRLIGRRFDDPQTQKEMKMVPYKIVKAPNGDAWVEANGQKFSPSQIGANVLTKMKETAEAYLGKSINKAVVTVPAYFNDAQRQATKDAGKIAGLDVQRIINEPTAAALSYGMNNKEGVIAVFDLGGGTFDVSILEISSGVFEVKATNGDTFLGGEDFDNTLLEYLVNEFKRSDNIDLTKDNLALQRLREAAEKAKIELSSTTQTEINLPFITADASGAKHLNITLTRSKFEGLVGKLIERTRSPCQNCLKDAGVTIKEVDEVLLVGGMTRVPKVQEIVSEIFGKSPCKGVNPDEAVAMGAAIQGGILRGDVKDLLLLDVVPLSLGIETLGAVFTKLIPRNTTIPTKKSQVFSTAADNQMQVGIKVLQGEREMAADNKVLGEFDLVGIPPAPRGMPQIEVTFDIDANGITTVSAKDKATGKEQNITIRSSGGLSDDEINRMVKEAELNAQKDQEKKQLIDLRNSADTTIYSVEKSLSEYREKIPAEIASEIETAVSDLRTAMAGEDVEDIKAKVEAANKAVSKIGEHMSKGSGSSGSDGSSGEGTSGTEQTPEAEFEEASGSRK
B7: HSP90-5 (protein, UniProt Q9SIF2 61-780)
chain: CDAAVAEKETTEEGSGEKFEYQAEVSRLLDLIVHSLYSHKEVFLRELVSNASDALDKLRFLSVTEPSLLGDGGDLEIRIKPDPDNGTITITDTGIGMTKEELIDCLGTIAQSGTSKFLKALKENKDLGADNGLIGQFGVGFYSAFLVAEKVVVSTKSPKSDKQYVWESVADSSSYLIREETDPDNILRRGTQITLYLREDDKYEFAESTRIKNLVKNYSQFVGFPIYTWQEKSRTIEVEEDEPVKEGEEGEPKKKKTTKTEKYWDWELANETKPLWMRNSKEVEKGEYNEFYKKAFNEFLDPLAHTHFTTEGEVEFRSILYIPGMGPLNNEDVTNPKTKNIRLYVKRVFISDDFDGELFPRYLSFVKGVVDSDDLPLNVSREILQESRIVRIMRKRLIRKTFDMIQEISESENKEDYKKFWENFGRFLKLGCIEDTGNHKRITPLLRFFSSKNEEELTSLDDYIENMGENQKAIYYLATDSLKSAKSAPFLEKLIQKDIEVLYLVEPIDEVAIQNLQTYKEKKFVDISKEDLELGDEDEVKDREAKQEFNLLCDWIKQQLGDKVAKVQVSNRLSSSPCVLVSGKFGWSANMERLMKAQALGDTSSLEFMRGRRILEINPDHPIIKDLNAACKNAPESTEATRVVDLLYDTAIISSGFTPDSPAELGNKIYEMMAMAVGGRWGRVEEEEESSTVNEGDDKSGETEVVEPSEVRAESDPWQD
B8: CCT8 (protein, UniProt Q94K05 1-549)
chain: MVGMSMQPYGIQSMLKEGYRHLSGLDEAVIKNIEACKELSTITRTSLGPNGMNKMVINHLDKLFVTNDAATIVNELEIQHPAAKLLVLAAKAQQEEIGDGANLTISFAGELLQNAEELIRMGLHPSEIISGYTKAVSKAVEILEQLVETGSETMDVRNKDEVISRMRAAVASKQFGQEEIICSLVTDACIQVCPKNPTNFNVDNVRVSKLLGGGLHNSCIVRGMVLKSDAVGSIKRMEKAKVAVFAGGVDTTATETKGTVLIHSAEQLENYAKTEEAKVEELIKAVAESGAKVIVSGGSIGEMALHFCERYKIMVLKISSKFELRRFCRTAGAVAHLKLSRPSPEDLGYVDSISVEEIGGVTVTIARNEEGGNSISTVVLRGSTDSILDDLERAVDDGVNTYKAMCRDSRIVPGAAATEIELAQRLKEYANAEIGLDKYAITKYAESFEFVPKTLADNAGLNAMEIIAALYTGHGSGNTKLGIDLEEGACKDVSETKVWDLFATKLFALKYASDAACTVLRVDQIIMAKPAGGPRRDAAQAAGAGAEED
B9: ATJ2 (protein, UniProt P42825 1-419)
chain: MFGRGPSRKSDNTKFYEILGVPKTAAPEDLKKAYKKAAIKNHPDKGGDPEKFKELAQAYEVLSDPEKREIYDQYGEDALKEGMGGGGGGHDPFDIFSSFFGSGGHPFGSHSRGRRQRRGEDVVHPLKVSLEDVYLGTTKKLSLSRKALCSKCNGKGSKSGASMKCGGCQGSGMKISIRQFGPGMMQQVQHACNDCKGTGETINDRDRCPQCKGEKVVSEKKVLEVNVEKGMQHNQKITFSGQADEAPDTVTGDIVFVIQQKEHPKFKRKGEDLFVEHTISLTEALCGFQFVLTHLDKRQLLIKSKPGEVVKPDSYKAISDEGMPIYQRPFMKGKLYIHFTVEFPESLSPDQTKAIEAVLPKPTKAAISDMEIDDCEETTLHDVNIEDEMKRKAQAQREAYDDDEEDHPGGAQRVQCAQQ
B10: ATJ3 (protein, UniProt Q94AW8 1-420)
chain: MFGRGPSKKSDNTKFYEILGVPKSASPEDLKKAYKKAAIKNHPDKGGDPEKFKELAQAYEVLSDPEKREIYDQYGEDALKEGMGGGGGGHDPFDIFSSFFGGGPFGGNTSRQRRQRRGEDVVHPLKVSLEDVYLGTMKKLSLSRNALCSKCNGKGSKSGASLKCGGCQGSGMKVSIRQLGPGMIQQMQHACNECKGTGETINDRDRCPQCKGDKVIPEKKVLEVNVEKGMQHSQKITFEGQADEAPDTVTGDIVFVLQQKEHPKFKRKGEDLFVEHTLSLTEALCGFQFVLTHLDGRSLLIKSNPGEVVKPDSYKAISDEGMPIYQRPFMKGKLYIHFTVEFPDSLSPDQTKALEAVLPKPSTAQLSDMEIDECEETTLHDVNIEDEMRRKAQAQREAYDDDDEDDDHPGGAQRVQCAQQ
B11: ARF-like GTPase ARL8b (protein, UniProt Q93Y31 1-184)
chain: MGLWDALLNWLRSLFFKQEMELSLIGLQNAGKTSLVNVVATGGYSEDMIPTVGFNMRKVTKGSVTIKLWDLGGQPRFRSMWERYCRSVSAIVYVVDAADPDNLSVSKSELHDLLSKTSLNGIPLLVLGNKIDKPGALSKEALTDEMGLKSLTDREVCCFMISCKNSTNIDQVIDWLVKHSKSSN

What follows are binders tested against T1, GFP-VAMP721^Y57D (Arabidopsis thaliana) (assay: affinity purification with mass spectrometry).
In the case of B1, the binding is reported as “binds”.
For B2, the binding was “binds”.
For B3, the binding was “binds”.
B4 was tested, and the binding was “binds”.
B5 was tested, and the binding was “binds”.
B6 was tested, and the binding was “binds”.
With B7 the binding was “binds”.
In the case of B8, the binding is reported as “binds”.
For B9, the binding was “binds”.
B10 was tested, and the binding was “binds”.
For B11, the binding was “binds”.

No constants are given. Whether binding was seen depends on the method and setting. In cells and extracts the contact can be indirect. These calls come from enrichment with a bait or labelling near it, and not all partners need be listed. Tags and fused reporters may be left off the sequences shown.
